No constants are given. Whether binding was seen depends on the method and setting. Where a sequence is shown, tags or fusion partners need not be part of it.

For this assay, the target named is GAL4 DBD-BEAF-32B (Drosophila). Kind of assay: two-hybrid; GAL4 AD fusions (pOAD) against GAL4 DBD fusions (pOBD2) in yeast; 50 to 100 colonies with both plasmids scored for growth on medium lacking adenine and histidine, with X-α-Gal.

B1: SSRP, subunit of FACT, yeast two-hybrid fusion (protein, UniProt Q05344 1-723)
chain: MTDSLEYNDINAEVRGVLCSGRLKMTEQNIIFKNTKTGKVEQISAEDIDLINSQKFVGTWGLRVFTKGGVLHRFTGFRDSEHEKLGKFIKAAYSQEMVEKEMCVKGWNWGTARFMGSVLSFDKESKTIFEVPLSHVSQCVTGKNEVTLEFHQNDDAPVGLLEMRFHIPAVESAEEDPVDKFHQNVMSKASVISASGESIAIFREIQILTPRGRYDIKIFSTFFQLHGKTFDYKIPMDSVLRLFMLPHKDSRQMFFVLSLDPPIKQGQTRYHYLVLLFAPDEETTIELPFSEAELRDKYEGKLEKEISGPVYEVMGKVMKVLIGRKITGPGNFIGHSGTAAVGCSFKAAAGYLYPLERGFIYIHKPPLHIRFEEISSVNFARSGGSTRSFDFEVTLKNGTVHIFSSIEKEEYAKLFDYITQKKLHVSNMGKDKSGYKDVDFGDSDNENEPDAYLARLKAEAREKEEDDDDGDSDEESTDEDFKPNENESDVAEEYDSNVESDSDDDSDASGGGGDSDGAKKKKEKKSEKKEKKEKKHKEKERTKKPSKKKKDSGKPKRATTAFMLWLNDTRESIKRENPGIKVTEIAKKGGEMWKELKDKSKWEDAAAKDKQRYHDEMRNYKPEAGGDSDNEKGGKSSKKRKTEPSPSKKANTSGSGFKSKEYISDDDSTSSDDEKDNEPAKKKSKPPSDGDAKKKKAKSESEPEESEEDSNASDEDEEDEASD
Take B1: the binding entry was “no binding”.

Source of the values: paper PMC9635645.
